According to PMC6202318:
Results are given in words; binding and its absence hold for the method and conditions named. Binding seen in cells or lysates may run through a third protein. Some results given as binding are weak or reduced against the parent protein; the word gives no strength.

The chains behind the UniProt entries cited, without tags or fusion partners. Residues count along the entry.
UniProt P0A6F5: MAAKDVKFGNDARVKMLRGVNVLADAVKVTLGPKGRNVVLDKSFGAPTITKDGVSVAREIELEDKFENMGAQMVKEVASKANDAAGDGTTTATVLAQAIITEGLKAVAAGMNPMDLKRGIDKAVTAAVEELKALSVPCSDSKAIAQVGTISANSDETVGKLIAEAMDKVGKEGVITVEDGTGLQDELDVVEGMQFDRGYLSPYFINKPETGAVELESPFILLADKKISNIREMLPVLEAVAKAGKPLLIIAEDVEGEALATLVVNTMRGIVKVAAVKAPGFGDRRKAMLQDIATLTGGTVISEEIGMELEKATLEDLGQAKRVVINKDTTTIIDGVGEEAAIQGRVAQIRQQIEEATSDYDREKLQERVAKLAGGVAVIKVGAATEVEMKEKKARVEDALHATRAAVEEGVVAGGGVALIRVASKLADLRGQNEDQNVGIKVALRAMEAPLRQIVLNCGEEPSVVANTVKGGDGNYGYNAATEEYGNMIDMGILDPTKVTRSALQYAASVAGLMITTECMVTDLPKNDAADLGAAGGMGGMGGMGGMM
UniProt P50591, residues 91-281: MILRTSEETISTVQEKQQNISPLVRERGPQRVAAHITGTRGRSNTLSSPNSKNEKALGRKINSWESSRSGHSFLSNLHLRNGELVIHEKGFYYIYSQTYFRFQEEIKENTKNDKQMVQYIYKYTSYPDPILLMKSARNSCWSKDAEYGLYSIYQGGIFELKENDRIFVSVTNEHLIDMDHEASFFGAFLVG

Molecular target: GroEL (E. coli) (UniProt P0A6F5)
Assay: co-IP; lysates of E. coli strains incubated with anti-GroEL antibody at room temperature 1 h, protein A/G agarose resin 30 min, washed with 0.15 M NaCl, 20 mM Na2HPO4, pH 7.0; eluted with SDS-PAGE loading buffer; Western blot with anti-TRAIL and anti-GroEL antibodies

binding: binds
Substance: recombinant human tumor necrosis factor-related apoptosis-inducing ligand (TRAIL) (from UniProt P50591 91-281)
